Test results: US20100104509A1, “HUMAN ANTIBODIES THAT BIND CD19 AND USES THEREOF” (Medarex, Inc., priority 2006, published 2010)
No constants are given. Whether binding was seen depends on the method and setting. Some binding calls cover weakened binding; strength is not graded here.

Molecular target: CD19 on B cells of cynomolgus monkeys (cynomolgus monkey)
Assay: FACS staining of cynomolgus monkey blood samples

binding: binds
B1: human monoclonal antibody 21D4 (antibody, V domains shown)
VH: EVQLVQSGAEVKKPGESLKISCKGSGYSFSSSWIGWVRQMPGKGLEWMGIIYPDDSDTRYSPSFQGQVTISADKSIRTAYLQWSSLKASDTAMYYCARHVTMIWGVIIDFWGQGTLVTVSS
VL: AIQLTQSPSSLSASVGDRVTITCRASQGISSALAWYQQKPGKAPKLLIYDASSLESGVPSRFSGSGSGTDFTLTISSLQPEDFATYYCQQFNSYPYTFGQGTKLEIK
